{
  "source": "paper PMC11210309",
  "about": "(Science Advances, 2021)",
  "key": {"[1]": {"experiment": "Apical-to-basolateral permeability", "settings": "human, Caco-2"}, "[2]": {"experiment": "Apical-to-basolateral permeability", "settings": "human"}},
  "data": [
    {"smiles": "NS(=O)(=O)c1cc(C(=O)O)c(NCc2ccco2)cc1Cl", "note": "[furosemide]", "values": [
      {"measurement": "Papp A→B at 2 h", "setting": "[1]", "result": "< 0.3", "unit": "×10⁻⁶ cm/s"},
      {"measurement": "Papp A→B at 2 h", "setting": "[2]", "result": "8.04 ± 0.91", "unit": "×10⁻⁶ cm/s"}
    ]}
  ]
}
